Laboratory results as given in PubChem BioAssay AID662 (National Center for Advancing Translational Sciences (NCATS), 2007).
The other results are listed elsewhere or left out. The main result of the screen is listed elsewhere. These columns were measured beside it and carry no call. The list favours compounds with an active or inconclusive main result. Words in brackets tell the shape of the fitted curve; partial curves, single points and poor fits give uncertain potencies.

Assay: Cell signaling CRE-BLA (Fsk stim)
Settings: CHO CRE-bla reporter (cAMP response element driving beta-lactamase), forskolin EC10, beta-lactamase ratio; measured here: 460 nm blue channel
How it was run: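 AC50 values, positive or negative, reflect shifts in EC10 NKH 477-induced CRE-bla reporter activity in CHO cells. Incubation lasted 3 h at 37 °C before CCF4 substrate (2 h, room temperature) and ratiometric 460/530 nm reading.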

Structure (SMILES)	AC50
O=C(CSc1nnc2c(Cl)cc(Cl)cn12)N1CCN(S(=O)(=O)c2ccccc2)CC1	12.6 µM [falling, partial curve, poor fit]
O=C(COC(=O)c1ccccn1)c1ccc(Br)cc1	1 µM [rising, single point]
Cn1c(=O)n(CCc2ccccc2)c(=O)c2c1nc1n2CCCN1c1ccccc1	6.31 µM [falling, full curve]
COc1ccccc1C1C(C#N)=C(N)Oc2cc(C)n(CCCn3ccnc3)c(=O)c21 (stereo not drawn)	0.01 µM [falling, full curve, poor fit]
CCOc1cc(C)c(C(C)C)cc1S(=O)(=O)N1CCOCC1	12.6 µM [rising, single point]
COc1ccc(-n2c(=O)c(C)nc3cnc(Nc4cccc(OC)c4)nc32)cc1	15.8 µM [rising, partial curve]
CCNc1ncc2nc(-c3cc(F)cc(F)c3)c(=O)n(Cc3ccc(F)cc3)c2n1	3.98 µM [rising, partial curve]
COc1cccc(Cn2c(=O)c(C)nc3cnc(N4CCN(C)CC4)nc32)c1	2 µM [rising, partial curve]
COc1cc(C(=O)OCCN2CCOCC2)cc(OC)c1OC	10 µM [rising, single point]
CCNC(=O)c1cc2c(=O)n3cccc(C)c3nc2n1C	15.8 µM [rising, partial curve]
Cc1ccc2nc(SC(C)C(=O)N3CCCC3)[nH]c2c1 (stereo not drawn)	25.1 µM [rising, single point]
O=C(O)CCSCc1ccccc1	0.0794 µM [rising, single point]
O=C(O)CCc1ccc(-c2ccc(Br)cc2)o1	31.6 µM [falling, single point]
CCC(C)NC(=O)CC(NS(=O)(=O)c1ccc(Cl)cc1)c1ccco1 (stereo not drawn)	10 µM [falling, partial curve]
COc1ccc(NC(=O)C2C3C=CC4(CN(Cc5cccnc5)C(=O)C24)O3)c(OC)c1 (stereo not drawn)	0.316 µM [falling, partial curve, poor fit]
CCC(=O)N1CCc2cc(S(=O)(=O)NCCC(=O)N3CCN(Cc4ccccc4)CC3)ccc21	25.1 µM [rising, single point]
COC(=O)[C@@]1(Cc2ccc(OC)cc2)[C@H]2c3cc(C(=O)N(C)C)n(CCF)c3C[C@H]2CN1C(=O)c1ccccc1	12.6 µM [rising, partial curve]
CC(C)(C#N)N([O-])C=C[N+](=O)C(C)(C)C#N	0.00316 µM [falling, full curve, poor fit]
C=C(C)COc1ccc2c3c(c(=O)oc2c1OCC(=C)C)CCC3	12.6 µM [rising, single point]
COc1ccc2c(c1)C(=O)N(c1ccccc1OC)C(=O)C2	20 µM [falling, single point]
NS(=O)(=O)c1ccc(NC2(C(=O)O)CCCC2)cc1	5.01 µM [falling, single point]
Cc1cccc([C@@H]2CN(C)CCc3c2cc(O)c(O)c3Cl)c1	12.6 µM [falling, partial curve, poor fit]
N#CCCn1c(=O)c(-c2cccs2)nc2cnc(Oc3cccc(Cl)c3)nc21	3.98 µM [rising, full curve]

Structure (SMILES)	AC50
CCCOc1ccc(-c2nnn(CC(=O)Nc3cccc(C(=O)OC)c3)n2)cc1	3.98 µM [rising, single point]
O=C(Cn1nnc2ccccc2c1=O)NC1CCCc2ccccc21 (stereo not drawn)	2 µM [falling, partial curve]
COc1ccc(-c2cc(C(F)F)n3ncc(C(=O)N4CCN5CCCC5C4)c3n2)cc1 (stereo not drawn)	10 µM [rising, partial curve]
COc1ccc(C2=NOC(C(=O)NCc3ccccc3)C2)cc1 (stereo not drawn)	10 µM [rising, partial curve]
CCn1ncc2c(OCc3ccc(C#N)cc3)cc(C)nc21	12.6 µM [rising, partial curve]
O=C(CSc1ncnc2sc3c(c12)CCCCC3)NCc1ccco1	10 µM [rising, partial curve]
COc1ccc(-c2nc(CN3CCC(C(=O)NC(C)C)CC3)c(C)o2)cc1OC	5.01 µM [falling, single point]
CCOC(=O)C1=C(CNCc2ccc(C)cc2)NC(=O)NC1c1ccc(OC)cc1 (stereo not drawn)	10 µM [rising, partial curve]
COc1cccc(C(=O)SC2=NCCS2)c1	0.501 µM [falling, full curve]
Cn1c2ccccc2c(=O)n2c(=O)c3ccccc3cc12	3.16 µM [rising, partial curve, poor fit]
c1ccc(-n2nnnc2SCc2cn3cccnc3n2)cc1	0.2 µM [rising, full curve, poor fit]
Cn1c(=O)c2c(nc(NCc3ccccc3)n2CCCc2ccccc2)n(C)c1=O	15.8 µM [rising, single point]
O=C(c1ccccc1)c1nc[nH]c1C(=O)Nc1ccccn1	12.6 µM [rising, partial curve]
CCN(C(=O)COC(=O)c1cnc(C)cn1)C1CCCCC1	0.00398 µM [falling, full curve, poor fit]
C[C@@H](C(=O)Nc1ccc2ccccc2c1)[C@H]1C[C@]1(C)[C@H](NC(=O)OCc1ccccc1)c1ccccc1	1 µM [falling, full curve]
CS(=O)(=O)N1CCc2cc(C(=O)N3CCOCC3)ccc21	0.0251 µM [falling, full curve, poor fit]
Cc1cccc2nc(CSc3nnnn3-c3ccccc3)cn12	10 µM [rising, partial curve]
CN(C)S(=O)(=O)c1cccc(-c2nnc(SCc3cc(Cl)cc4c3OCOC4)n2N)c1	0.00398 µM [falling, full curve, poor fit]
CCOCC(=O)Nc1nc2ccc(S(C)(=O)=O)cc2s1	2 µM [rising, partial curve]
COC(=O)c1ccc(CSc2nnc(Nc3ccccc3OC)s2)o1	12.6 µM [rising, single point]
Cc1ccccc1-c1cncnc1NCCN1CCOCC1	5.01 µM [rising, full curve]
Cc1nnc(NC(=O)C2CCCN(c3ncccn3)C2)s1 (stereo not drawn)	3.98 µM [falling, partial curve]
O=S1(=O)N=C(N2CCOCC2)c2ccccc21	0.398 µM [falling, partial curve]

Reprinted at random: three records from the list
Structure (SMILES)	AC50
COc1cc(C(=O)OCCN2CCOCC2)cc(OC)c1OC	10 µM [rising, single point]
COc1ccccc1C1C(C#N)=C(N)Oc2cc(C)n(CCCn3ccnc3)c(=O)c21 (stereo not drawn)	0.01 µM [falling, full curve, poor fit]
COc1ccc(NC(=O)C2C3C=CC4(CN(Cc5cccnc5)C(=O)C24)O3)c(OC)c1 (stereo not drawn)	0.316 µM [falling, partial curve, poor fit]

Further results:

Structure (SMILES)	AC50
O=C(Nc1nccs1)C12CC3CC(C1)CC(C(=O)Nc1nccs1)(C3)C2	12.6 µM [falling, partial curve]
O=C1NC(c2ccccn2)Nc2sc3c(c21)CCC3 (stereo not drawn)	6.31 µM [rising, partial curve]
COc1ccc(N2CSC3=C(C#N)C(c4cc(OC)ccc4OC)CC(=O)N3C2)c(OC)c1 (stereo not drawn)	12.6 µM [rising, partial curve]
Cc1c(N2CCCC2)cc2c(c1NC(=O)c1ccccc1Cl)C(C)(C)CC2(C)C	0.0501 µM [rising, full curve, poor fit]
COc1cc(C)c(S(=O)(=O)Nc2ccccc2F)cc1C	0.631 µM [rising, single point]
COc1ccccc1CNC(=O)C1CCCN(S(=O)(=O)c2cccc3cccnc23)C1 (stereo not drawn)	12.6 µM [falling, single point]
COc1cccc(C(=O)N(Cc2ccc3c(c2)OCO3)Cc2nc3ccccc3c(=O)[nH]2)c1	10 µM [rising, partial curve]
O=C(O)CCC(=O)Nc1ccc(Br)cn1	25.1 µM [falling, single point]
COc1ccc(C)cc1NC(=O)c1cnc2scc(C)n2c1=O	12.6 µM [rising, partial curve]
CC1CN(c2oc(Cc3cccc4ccccc34)nc2C#N)CC(C)O1 (stereo not drawn)	12.6 µM [rising, single point]
COc1ccc(CNc2ncncc2-c2ccc(C(=O)N(C)C)cc2)c(OC)c1	20 µM [rising, partial curve]
Cc1nc(Cc2nnc(SCc3nc(N)nc(Nc4ccccc4C)n3)o2)cs1	10 µM [rising, partial curve]
Cc1cc2ccccc2n1CCNC(=O)C1CC1	6.31 µM [rising, partial curve]
CN(C)c1ccnc2sc3c(=O)n(Cc4ccccc4)cnc3c12	0.0501 µM [falling, full curve, poor fit]
O=C(Nc1nonc1NC(=O)C1CCCCC1)C1CCCCC1	0.631 µM [rising, partial curve]
Cn1c(SCc2nnc(-c3ccc(F)cc3)o2)nnc1C1COc2ccccc2O1 (stereo not drawn)	0.00398 µM [falling, full curve, poor fit]
CCN1C(=O)/C(=C2/Sc3ccc(OC)cc3N2C)SC1=Nc1cccc(O)c1	3.98 µM [rising, full curve]
CCCC1C(C#N)=C(N)Oc2cc(C)n(C)c(=O)c21 (stereo not drawn)	12.6 µM [rising, partial curve]
COc1ccccc1C1CC(=O)Nc2cc3c(cc21)OCCO3 (stereo not drawn)	15.8 µM [rising, single point]
CCCn1c(SCC(=O)Nc2ccc3c(c2)OCO3)nc2c1c(=O)n(C)c(=O)n2C	3.98 µM [rising, partial curve]
O=C(Nc1ccc(Cl)cc1)c1cc2nc(-c3ccco3)cc(C(F)(F)F)n2n1	5.01 µM [rising, partial curve]
CC1CN(C(=O)C(C)N2C(=O)c3ccccc3C2=O)CC(C)O1 (stereo not drawn)	0.00316 µM [falling, full curve, poor fit]
